In patent publication US9326511B2, “Methods of inhibiting microbial biofilms” (priority 2008, dated 2016):
At least one read-out could not be matched to a standard name with certainty.

Tested on: S. aureus SH1000 biofilms
Experiment: Biofilm MIC and minimum biofilm eradication concentration, Calgary Biofilm Device
Format: cell-based, Staphylococcus aureus
Conditions: biofilm MIC, S. aureus SH1000, Calgary device (Example H)
Method: Methods: MICs were determined for planktonic cultures by broth microdilution according to British Society for Antimicrobial Chemotherapy (BSAC) guidelines. Biofilm MICs (bMIC) and minimum biofilm eradication concentrations (MBECs) were determined using the Calgary biofilm device. The effect of Compound 10 on the viability of cold culture cells was determined by growing S. aureus SH1000 to early exponential phase at 37° C. and resuspending the cells in pre-chilled media, where they were maintained in the presence and absence of Compound 10 and control agents. The effect of Compound 10 on slow growing cells expressing the stringent response was also determined by growing cultures to early log phase and the stringent response induced by the addition of the isoleucyl-tRNA synthetase inhibitor mupirocin. Compound 10 and control agents were then added and samples recovered for viable cell determinations.
Biofilm MICs and minimum biofilm eradication concentrations (MBEC) were determined in the Calgary Biofilm Device (Nunc Inc, Roskilde, Denmark) as described by Miller et al., 2005. This involves the following steps. […] After the MIC was recorded, the lid assembly was again washed twice in PBS to remove planktonic cells and remaining antibiotic and then placed into fresh drug-free media. […]

CO[C@H]1/C=C/O[C@@]2(C)Oc3c(C)c(O)c4c(O)c(c(/C=N/N5CCN(C)CC5)c(O)c4c3C2=O)NC(=O)/C(C)=C\C=C\[C@H](C)[C@H](O)[C@@H](C)[C@@H](O)[C@@H](C)[C@H](OC(C)=O)[C@@H]1C [Rifampin]
bMIC: 0.02 µg/mL
